Measured data: PubChem BioAssay AID652243 (Drosophila RNAi Screening Center, 2013)
The deposit covers about 24,000 reagents; below is an unselected part of those that have a named target and a result. Of all reagents, 246 (1%) got an active call. 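Plates not normalised; calls are printed but the firefly/Renilla ratio behind them is not deposited; fold cut for lowering reported inconsistently.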 Raw values are not corrected between plates. Entries without a mark were called inactive. Names joined by + are all predicted targets of the reagent. The record does not give: the amount of reagent.

Screen: 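Knock-downs that decrease or increase androgen receptor reporter signal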 (primary screen)
Cells: Drosophila S2R+ cells
Reagent: long dsRNA against Drosophila genes
Duration: 72 h (48 h, then 24 h hormone)
Treatment: synthetic androgen R1881 at 10 nM for 24 h
Read-out: 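Firefly light from an androgen-responsive reporter and Renilla control light per well, raw and unnormalised, for each of two replicates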
Scale: firefly reporter light: higher = more light from androgen-responsive reporter; Renilla control light: higher = more constitutive control signal (cell number, transfection)
Hit rule: 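Hit when the log firefly-to-Renilla ratio dropped or increased by a fixed fold versus the mean of GFP or LacZ controls across duplicate plates; lowering cut given as 1.5 and as 3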
Meaning of the calls: active = hit: reporter lowered or raised; inactive = no hit

{"Gene":"CG17544","DRSC id":"DRSC02624","firefly reporter light, replicate 1":9.70e5,"firefly reporter light, replicate 2":1.02e6,"Renilla control light, replicate 1":1.40e6,"Renilla control light, replicate 2":1.43e6}
{"Gene":"CG17544","DRSC id":"DRSC25562","firefly reporter light, replicate 1":7.92e5,"firefly reporter light, replicate 2":6.58e5,"Renilla control light, replicate 1":1.56e6,"Renilla control light, replicate 2":1.71e6}
{"Gene":"lncRNA:CR41443 (long non-coding RNA:CR41443)","DRSC id":"DRSC38747","firefly reporter light, replicate 1":8.92e5,"firefly reporter light, replicate 2":4.33e5,"Renilla control light, replicate 1":1.94e6,"Renilla control light, replicate 2":1.33e6}
{"Gene":"cav (caravaggio)","DRSC id":"DRSC15995","firefly reporter light, replicate 1":85669,"firefly reporter light, replicate 2":1.25e5,"Renilla control light, replicate 1":5.34e5,"Renilla control light, replicate 2":6.39e5}
{"Gene":"cav (caravaggio)","DRSC id":"DRSC26206","firefly reporter light, replicate 1":3.34e5,"firefly reporter light, replicate 2":3.24e5,"Renilla control light, replicate 1":7.43e5,"Renilla control light, replicate 2":8.22e5}
{"Gene":"Muc55B (Mucin 55B)","DRSC id":"DRSC21440","firefly reporter light, replicate 1":1.03e6,"firefly reporter light, replicate 2":9.04e5,"Renilla control light, replicate 1":2.43e6,"Renilla control light, replicate 2":2.25e6}
{"Gene":"Muc55B (Mucin 55B)","DRSC id":"DRSC27913","firefly reporter light, replicate 1":5.23e5,"firefly reporter light, replicate 2":3.57e5,"Renilla control light, replicate 1":2.03e6,"Renilla control light, replicate 2":1.23e6}
{"Gene":"CR31700 (pseudo)","DRSC id":"DRSC03682","firefly reporter light, replicate 1":1.78e5,"firefly reporter light, replicate 2":2.36e5,"Renilla control light, replicate 1":2.58e5,"Renilla control light, replicate 2":3.39e5}

Looked up above.
For “firefly reporter light, replicate 1”, cav (caravaggio) [DRSC15995] has 85669
CG17544 [DRSC02624], firefly reporter light, replicate 1 = 9.70e5
Entry of cav (caravaggio) [DRSC26206] in “firefly reporter light, replicate 2”: 3.24e5

The list goes on.
{"Gene":"snf (sans fille)","DRSC id":"DRSC18835","firefly reporter light, replicate 1":35273,"firefly reporter light, replicate 2":32296,"Renilla control light, replicate 1":2.95e5,"Renilla control light, replicate 2":2.98e5}
{"Gene":"snf (sans fille)","DRSC id":"DRSC27854","firefly reporter light, replicate 1":8.88e5,"firefly reporter light, replicate 2":5.28e5,"Renilla control light, replicate 1":4.66e6,"Renilla control light, replicate 2":2.16e6}
{"Gene":"snf (sans fille)","DRSC id":"DRSC38949","firefly reporter light, replicate 1":4.20e5,"firefly reporter light, replicate 2":3.86e5,"Renilla control light, replicate 1":1.12e6,"Renilla control light, replicate 2":9.36e5}
{"Gene":"Vha36-1 (Vacuolar H[+] ATPase 36kD subunit 1)","DRSC id":"DRSC07098","firefly reporter light, replicate 1":1.45e6,"firefly reporter light, replicate 2":1.40e6,"Renilla control light, replicate 1":2.53e6,"Renilla control light, replicate 2":2.39e6}
{"Gene":"Vha36-1 (Vacuolar H[+] ATPase 36kD subunit 1)","DRSC id":"DRSC25624","firefly reporter light, replicate 1":5.86e5,"firefly reporter light, replicate 2":4.27e5,"Renilla control light, replicate 1":1.53e6,"Renilla control light, replicate 2":6.47e5}
{"Gene":"CG9997","DRSC id":"DRSC16591","firefly reporter light, replicate 1":2.34e5,"firefly reporter light, replicate 2":2.82e5,"Renilla control light, replicate 1":2.09e6,"Renilla control light, replicate 2":3.36e6}
{"Gene":"CG9997","DRSC id":"DRSC29613","firefly reporter light, replicate 1":2.74e5,"firefly reporter light, replicate 2":4.07e5,"Renilla control light, replicate 1":6.00e5,"Renilla control light, replicate 2":6.00e5}
{"Gene":"CG2641","DRSC id":"DRSC15441","firefly reporter light, replicate 1":81470,"firefly reporter light, replicate 2":65355,"Renilla control light, replicate 1":1.76e6,"Renilla control light, replicate 2":1.11e6}
{"Gene":"robo1 (roundabout 1)","DRSC id":"DRSC04712","firefly reporter light, replicate 1":3.07e5,"firefly reporter light, replicate 2":3.03e5,"Renilla control light, replicate 1":2.47e6,"Renilla control light, replicate 2":1.88e6}
{"Gene":"caly (calypso)","DRSC id":"DRSC07182","firefly reporter light, replicate 1":1.05e6,"firefly reporter light, replicate 2":6.64e5,"Renilla control light, replicate 1":1.91e6,"Renilla control light, replicate 2":1.25e6}
{"Gene":"TfIIEbeta (Transcription factor IIEbeta)","DRSC id":"DRSC08701","firefly reporter light, replicate 1":1.21e5,"firefly reporter light, replicate 2":1.38e5,"Renilla control light, replicate 1":1.65e6,"Renilla control light, replicate 2":1.75e6}
{"Gene":"CG34290","DRSC id":"DRSC38813","firefly reporter light, replicate 1":1.01e6,"firefly reporter light, replicate 2":6.68e5,"Renilla control light, replicate 1":2.19e6,"Renilla control light, replicate 2":1.20e6}
{"Gene":"BORCS7 + CG13430","DRSC id":"DRSC06392","firefly reporter light, replicate 1":8.47e5,"firefly reporter light, replicate 2":6.13e5,"Renilla control light, replicate 1":1.43e6,"Renilla control light, replicate 2":8.50e5}
{"Gene":"BORCS7 + CG13430","DRSC id":"DRSC06707","firefly reporter light, replicate 1":1.34e5,"firefly reporter light, replicate 2":1.31e5,"Renilla control light, replicate 1":1.11e6,"Renilla control light, replicate 2":1.12e6}
